For test [1], the target named is T1, recombinant human Tie-2/Fc chimera (human, UniProt Q02763 23-748).
T1 construct: TIE-2 receptor tyrosine kinase, human, part fused to Fc in R&D Systems Cat. #313-TI-100; source: bought: R&D Systems
In words: ELISA; solid-phase binding assay; Tie-2/Fc (4.0 ug/ml), Ang-1 (200 ng/ml), tropoelastin, fibronectin or BSA (10 ug/ml each) coated on 96-well plates in 4 mM CaCl2 in TBS; 1:2 serial dilutions of soluble Fibulin-5 in 2% non-fat milk in TBS, 1 hr, room temperature; detected with Fibulin-5 antibody; both purified. Background: An ELISA detects its analyte on a solid surface through an enzyme-linked reagent.

Chains of the proteins cited; added tags and fusions are not shown. Lines headed by an entry give the natural chain unless they say otherwise; changes in a name come on top. Residues count along the entry.
UniProt Q02763, residues 23-748: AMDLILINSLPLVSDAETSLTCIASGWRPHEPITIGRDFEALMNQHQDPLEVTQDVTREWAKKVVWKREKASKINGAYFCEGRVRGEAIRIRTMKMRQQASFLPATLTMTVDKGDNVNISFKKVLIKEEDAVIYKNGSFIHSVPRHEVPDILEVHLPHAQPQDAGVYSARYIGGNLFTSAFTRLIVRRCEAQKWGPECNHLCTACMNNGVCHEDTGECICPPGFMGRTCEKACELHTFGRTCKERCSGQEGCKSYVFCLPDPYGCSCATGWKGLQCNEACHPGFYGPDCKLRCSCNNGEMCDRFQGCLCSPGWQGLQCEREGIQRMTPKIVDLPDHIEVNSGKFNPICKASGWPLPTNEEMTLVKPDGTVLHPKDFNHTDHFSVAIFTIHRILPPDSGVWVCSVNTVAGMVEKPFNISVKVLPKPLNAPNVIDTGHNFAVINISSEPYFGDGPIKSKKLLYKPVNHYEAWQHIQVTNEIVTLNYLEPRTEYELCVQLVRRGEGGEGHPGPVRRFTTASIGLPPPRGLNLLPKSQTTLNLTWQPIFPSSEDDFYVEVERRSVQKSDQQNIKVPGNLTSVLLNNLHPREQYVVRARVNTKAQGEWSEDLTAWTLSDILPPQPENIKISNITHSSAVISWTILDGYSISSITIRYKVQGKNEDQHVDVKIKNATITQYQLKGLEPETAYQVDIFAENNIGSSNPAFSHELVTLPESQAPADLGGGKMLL
UniProt P07589, residues 33-2478: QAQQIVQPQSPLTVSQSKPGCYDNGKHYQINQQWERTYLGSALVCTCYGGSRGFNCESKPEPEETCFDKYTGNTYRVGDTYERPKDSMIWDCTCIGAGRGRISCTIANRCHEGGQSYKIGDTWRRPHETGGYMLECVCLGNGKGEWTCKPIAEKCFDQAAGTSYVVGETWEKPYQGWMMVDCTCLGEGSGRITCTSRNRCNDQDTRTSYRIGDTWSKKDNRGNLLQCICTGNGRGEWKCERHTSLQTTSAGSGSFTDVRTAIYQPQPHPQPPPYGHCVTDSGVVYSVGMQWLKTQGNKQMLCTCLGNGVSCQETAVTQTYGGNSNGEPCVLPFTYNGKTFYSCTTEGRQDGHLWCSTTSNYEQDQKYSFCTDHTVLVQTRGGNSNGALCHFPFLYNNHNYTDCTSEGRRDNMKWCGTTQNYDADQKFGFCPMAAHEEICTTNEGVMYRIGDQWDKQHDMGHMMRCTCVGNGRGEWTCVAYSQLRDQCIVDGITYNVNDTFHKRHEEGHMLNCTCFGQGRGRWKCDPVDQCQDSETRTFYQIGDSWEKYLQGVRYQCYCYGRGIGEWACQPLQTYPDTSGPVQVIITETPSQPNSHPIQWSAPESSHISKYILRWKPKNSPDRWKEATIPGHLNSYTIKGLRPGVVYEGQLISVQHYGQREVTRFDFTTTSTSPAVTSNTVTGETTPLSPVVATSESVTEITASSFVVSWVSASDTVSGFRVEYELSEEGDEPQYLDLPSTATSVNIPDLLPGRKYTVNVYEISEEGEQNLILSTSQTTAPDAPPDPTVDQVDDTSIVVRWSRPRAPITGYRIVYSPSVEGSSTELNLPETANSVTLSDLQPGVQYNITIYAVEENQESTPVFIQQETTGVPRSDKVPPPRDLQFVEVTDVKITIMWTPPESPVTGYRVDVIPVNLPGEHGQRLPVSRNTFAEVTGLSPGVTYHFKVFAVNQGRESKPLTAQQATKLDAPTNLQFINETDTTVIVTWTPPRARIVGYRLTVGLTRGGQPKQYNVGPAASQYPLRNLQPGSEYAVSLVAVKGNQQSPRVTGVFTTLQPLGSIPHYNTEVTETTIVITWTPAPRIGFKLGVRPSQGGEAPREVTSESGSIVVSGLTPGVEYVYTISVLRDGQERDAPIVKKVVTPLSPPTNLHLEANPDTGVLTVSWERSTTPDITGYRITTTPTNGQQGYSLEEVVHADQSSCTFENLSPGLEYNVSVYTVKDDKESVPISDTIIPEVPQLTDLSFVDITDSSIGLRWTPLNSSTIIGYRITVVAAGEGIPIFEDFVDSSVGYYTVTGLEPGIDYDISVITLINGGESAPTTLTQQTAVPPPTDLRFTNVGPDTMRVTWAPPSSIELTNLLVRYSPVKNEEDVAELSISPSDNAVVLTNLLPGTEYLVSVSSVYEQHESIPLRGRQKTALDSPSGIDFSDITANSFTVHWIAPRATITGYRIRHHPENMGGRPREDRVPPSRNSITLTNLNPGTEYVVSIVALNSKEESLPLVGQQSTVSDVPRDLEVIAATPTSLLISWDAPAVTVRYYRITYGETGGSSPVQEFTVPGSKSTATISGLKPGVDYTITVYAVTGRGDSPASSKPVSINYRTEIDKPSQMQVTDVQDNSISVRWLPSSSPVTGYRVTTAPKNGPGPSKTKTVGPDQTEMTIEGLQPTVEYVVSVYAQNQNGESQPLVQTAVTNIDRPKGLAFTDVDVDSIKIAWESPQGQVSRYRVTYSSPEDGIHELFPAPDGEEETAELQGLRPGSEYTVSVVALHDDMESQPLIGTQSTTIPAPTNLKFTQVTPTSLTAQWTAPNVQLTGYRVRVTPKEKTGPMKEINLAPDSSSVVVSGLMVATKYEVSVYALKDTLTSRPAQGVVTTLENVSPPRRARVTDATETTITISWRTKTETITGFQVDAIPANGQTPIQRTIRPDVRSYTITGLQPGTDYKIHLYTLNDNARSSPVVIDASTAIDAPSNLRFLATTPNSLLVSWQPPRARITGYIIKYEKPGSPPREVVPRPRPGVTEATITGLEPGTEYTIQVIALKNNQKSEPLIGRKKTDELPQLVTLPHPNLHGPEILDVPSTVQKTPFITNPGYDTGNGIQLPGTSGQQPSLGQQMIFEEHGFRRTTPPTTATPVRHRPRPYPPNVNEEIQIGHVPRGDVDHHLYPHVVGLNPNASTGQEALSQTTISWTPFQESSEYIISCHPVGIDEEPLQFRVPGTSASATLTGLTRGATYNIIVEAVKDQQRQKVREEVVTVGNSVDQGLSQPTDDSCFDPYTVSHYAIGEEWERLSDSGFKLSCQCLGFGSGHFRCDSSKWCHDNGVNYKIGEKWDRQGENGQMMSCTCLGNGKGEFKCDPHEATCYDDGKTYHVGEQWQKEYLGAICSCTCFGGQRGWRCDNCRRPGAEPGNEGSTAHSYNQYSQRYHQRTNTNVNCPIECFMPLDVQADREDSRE
UniProt P02769, residues 25-607: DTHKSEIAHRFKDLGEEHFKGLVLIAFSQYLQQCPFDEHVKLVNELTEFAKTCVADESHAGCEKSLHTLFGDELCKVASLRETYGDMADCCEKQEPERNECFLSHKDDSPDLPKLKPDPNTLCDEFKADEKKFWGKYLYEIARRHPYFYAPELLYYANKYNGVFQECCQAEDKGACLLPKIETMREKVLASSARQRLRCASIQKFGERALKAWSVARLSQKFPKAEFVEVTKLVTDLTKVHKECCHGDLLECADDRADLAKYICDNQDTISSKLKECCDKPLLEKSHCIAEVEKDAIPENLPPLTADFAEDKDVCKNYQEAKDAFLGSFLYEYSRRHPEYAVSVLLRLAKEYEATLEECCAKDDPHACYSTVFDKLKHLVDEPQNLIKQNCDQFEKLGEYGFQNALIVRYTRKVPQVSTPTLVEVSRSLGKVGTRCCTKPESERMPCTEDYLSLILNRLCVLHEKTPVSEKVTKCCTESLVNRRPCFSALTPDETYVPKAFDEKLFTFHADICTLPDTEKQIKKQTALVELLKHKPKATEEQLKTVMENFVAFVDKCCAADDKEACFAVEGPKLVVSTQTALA
UniProt Q9WVH8, residues 24-448: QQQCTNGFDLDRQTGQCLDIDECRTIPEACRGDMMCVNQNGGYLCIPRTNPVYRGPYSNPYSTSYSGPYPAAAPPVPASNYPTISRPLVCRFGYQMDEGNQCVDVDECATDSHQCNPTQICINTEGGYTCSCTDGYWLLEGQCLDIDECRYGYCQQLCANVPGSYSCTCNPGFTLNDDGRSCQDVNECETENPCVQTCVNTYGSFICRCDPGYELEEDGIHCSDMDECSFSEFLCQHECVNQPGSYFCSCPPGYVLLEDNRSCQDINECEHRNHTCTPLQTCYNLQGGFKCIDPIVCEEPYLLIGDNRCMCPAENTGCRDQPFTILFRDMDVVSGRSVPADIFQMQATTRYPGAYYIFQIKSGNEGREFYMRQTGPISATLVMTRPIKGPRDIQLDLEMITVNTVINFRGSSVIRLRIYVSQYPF

The next test has as its target fibronectin (UniProt P07589). The description is as above.
For another test, the target named is BSA (bovine) (UniProt P02769). Described as above.
The target of test [2] is recombinant human Ang-1 (angiopoietin-1) (human) (UniProt Q15389). Described as above.
Test [3] addresses recombinant full-length (wild-type) rat Fibulin-5 (rat) (UniProt Q9WVH8). In words: ELISA; solid-phase binding assay; TIE-2/Fc (4.0 ug/ml) or Fibulin-5 (20 ug/ml) coated on 96-well plates; 1:2 serial dilutions of soluble Ang-1 in 2% non-fat milk in TBS, 1 hr, room temperature; detected with Ang-1 antibody; both purified.

These are yes or no findings as the source states them, for the method shown. Some entries that bind do so weakly or less than the wild type.

For the molecule “recombinant full-length (wild-type) rat Fibulin-5 (from UniProt Q9WVH8 24-448)”, the binding entry is “no binding” in test [1], “binds” with fibronectin, “no binding” with BSA (bovine) and “no binding” in test [2].

B1: recombinant human Ang-1 (angiopoietin-1) (ligand, UniProt Q15389 16-498, looked up)
chain: HIGCSNQRRSPENSGRRYNRIQHGQCAYTFILPEHDGNCRESTTDQYNTNALQRDAPHVEPDFSSQKLQHLEHVMENYTQWLQKLENYIVENMKSEMAQIQQNAVQNHTATMLEIGTSLLSQTAEQTRKLTDVETQVLNQTSRLEIQLLENSLSTYKLEKQLLQQTNEILKIHEKNSLLEHKILEMEGKHKEELDTLKEEKENLQGLVTRQTYIIQELEKQLNRATTNNSVLQKQQLELMDTVHNLVNLCTKEGVLLKGGKREEEKPFRDCADVYQAGFNKSGIYTIYINNMPEPKKVFCNMDVNGGGWTVIQHREDGSLDFQRGWKEYKMGFGNPSGEYWLGNEFIFAITSQRQYMLRIELMDWEGNRAYSQYDRFHIGNEKQNYRLYLKGHTGTAGKQSSLILHGADFSTKDADNDNCMCKCALMLTGGWWFDACGPSNLNGMFYTAGQNHGKLNGIKWHYFKGPSYSLRSTTMMIRPLDF
notes: angiopoietin-1, human, recombinant, R&D Systems Cat. #923-AN/CF; The introduction calls angiopoietins oligomeric glycoproteins; source: bought: R&D Systems
As for B1, in test [3], the binding result was “no binding”.
